# Data published in US7968080B2 (The Regents of the University of California, priority 2003, dated 2011).
# Positions of bridges follow the written chain, without caps; N, C: chain ends. Non-standard residues stand in square brackets, D forms with d. No end group written: not given here.
# Tests used:
# [1] = general procedure: Fmoc solid-phase peptide synthesis; Rink amide MBHA resin (0.54 mmol/g); HBTU/HOBt/DIEA or PyBOP/HOBt/DIEA; DIC/HOBt for the last residue; details: whole synthesis
# [2] = general procedure: Fmoc solid-phase peptide synthesis; Rink amide resin; HBTU/HOBt/DIEA or PyBOP/HOBt/DIEA; DIC/HOBt for the last residue; details: whole synthesis, scale 0.2 mmol
# [3] = scale of the general procedure 0.1-0.2 mmol
substance,measurement,setting,value
(4-amino-3-iodo)-D-Phe-c[Cys-Tyr-D-Trp-Lys-Val-Cys]-Asp-NH2,isolated mass,[1],4.1 mg
same,crude mass,[1]; scale 90 mg peptide resin,41 mg
same,crude yield,[1]; [3],64%
same,isolated yield,[1]; [3],7.4%
(4-amino)-D-Phe-c[Cys-Tyr-D-Trp-Lys-Val-Cys]-D-Asp-NH2,crude mass,[1]; scale 0.2 mmol,237.7 mg
(4-amino)-D-Phe-c[Cys-Tyr-D-Trp-Lys-Val-Cys]-Asp-NH2,crude mass,[1]; scale 0.1 mmol,115 mg
[dF]CY[dW]KVCD-NH2 (disulfide 2-7),crude mass,[2],228 mg
